Laboratory results from patent publication US20050124557A1, “Use of benzothiazepines having activity as inhibitors of ileal bile acid transport for reducing cholesterololemia” (priority 2002, published 2005).
Counter-ions that a name gives are not always drawn.

Tested on: LDL receptor/ApoE deficient mice
Test: Combination study (experiment II): plasma lipids/lipoproteins after Compound (I), atorvastatin calcium salt or both
Type: in vivo
Protocol: Atorvastatin calcium salt (40 mg tablets) was ground into fine particles and mixed into regular mouse R^3-chow which then was pelleted (0.05% w:w). Compound (I) was dissolved in polyethanylglycol (PEG):ethanol:solutol:Water (4:1:0.5:8.5) vehicle and administered by gavage once a day in the afternoon.
Altogether 54 female LDL receptor/ApoE deficient mice were used (5 to 6 weeks old weighing 25 to 30 g at the start of the study; obtained from B&M/AS, Denmark). They were kept under standardized conditions with free access to water and chow. The light-cycle hours were between 6:00 a.m. and 6:00 p.m. In experiment I, the dose response study, the mice were treated with Compound (I) by gavage once a day in the afternoon the first three days and in the morning the last day. The control group on regular R^3-chow received the vehicle by gavage. In experiment II, the combination study, atorvastatin calcium salt (0.05%) was mixed with R^3 chow. The mice received atorvastatin calcium salt (0.05% in chow) and/or Compound (I) by gavage for 7 days. The control group received R^3 chow and vehicle.
Mice were starved 3 hours before they were scarified at 10 a.m. Animals were anaesthetized with isofluran, bled by cardiac puncture, and thereafter killed by cervical dislocation. Blood was collected into EDTA containing tubes, plasma was separated by centrifugation and stored at −70° C.
Cholesterol in plasma and in FPLC on line measurement was performed with a commercial cholesterol kit from Roche Diagnostics, GmbH, Germany, Cholesterol, CHOD-PAP 1489437.
Triglycerides in plasma was measured by using a commercial reagent kit, from Roche Diagnostics, GmbH, Germany, Triglycerides/GB, 450032.
The cholesterol distribution profiles were measured by using a size exclusion high performance liquid chromatography system, SMART, with column Superose 6 PC 3.2/30, (Amersham Pharmacia Biotec, Uppsala, Sweden). The chromatographic system was linked to an air segmented continuous flow system for online post-derivatization analysis of total cholesterol by using enzymatic colorimetric reagents. The SMART-system was connected to a sample injector, (Gina 50, Gynkotek HPLC, Germering, GmbH). Elution buffer consisted of 0.01M Tris, 0.03 M NaCl, pH 7.40, flow rate 35 ml/min. […] The absorbance was measured at […] with a UV/VIS detector, (Jasco UV-970, Jasco International Co, Ltd, Japan). […] The distribution of lipoproteins was continuously measured as total cholesterol by using enzymatic calorimetric reagent, reconstituted in water, double volume compared to manufacturer instructions. […] The various peaks in the profiles are designated LP-remnants, LDL, and HDL for simplicity, even though it is clear that the separation is determined primarily by the size of the lipoproteins. […]

[1] = one week, Compound (I) 10 μmol/kg/day by gavage, atorvastatin calcium salt 0.05% in chow

Which “reduction of total plasma cholesterol” value (7 days, atorvastatin calcium salt 0.05% in diet (approximately 80-100 mg/kg/day), Compound (I) 10 μmol/kg/day) does the source give for `CC(C)c1c(C(=O)Nc2ccccc2)c(-c2ccccc2)c(-c2ccc(F)cc2)n1CC[C@@H](O)C[C@@H](O)CC(=O)O` [Atorvastatin calcium salt, reference compound] here?
Its value is 25%.

And the “reduction of plasma triglycerides” value (7 days, atorvastatin calcium salt 0.05% in diet, Compound (I) 10 μmol/kg/day)?
The value was 60%.

And the “Chol (plasma total cholesterol), % Change compared to control group” value [1]?
The value was −24%.

And the “TG (plasma triglycerides), % Change compared to control group” value [1]?
The value was −59%.
